From publication PMC7866234
These are yes or no findings as the source states them, for the method shown. In cells and extracts the contact can be indirect. Some results given as binding are weak or reduced against the parent protein; the word gives no strength.

Amino acid sequences for entries named in this document (tags omitted).
UniProt Q96GY3: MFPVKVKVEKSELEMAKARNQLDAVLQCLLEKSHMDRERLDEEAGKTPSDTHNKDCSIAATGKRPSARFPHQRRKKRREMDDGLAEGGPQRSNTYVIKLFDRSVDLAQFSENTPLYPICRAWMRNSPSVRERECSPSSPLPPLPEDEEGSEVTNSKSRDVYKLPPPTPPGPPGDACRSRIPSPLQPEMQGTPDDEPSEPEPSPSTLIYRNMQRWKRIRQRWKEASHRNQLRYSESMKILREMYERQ
UniProt P03129: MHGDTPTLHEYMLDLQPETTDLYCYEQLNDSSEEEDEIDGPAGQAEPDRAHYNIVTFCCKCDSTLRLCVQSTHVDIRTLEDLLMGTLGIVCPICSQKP
UniProt P06788: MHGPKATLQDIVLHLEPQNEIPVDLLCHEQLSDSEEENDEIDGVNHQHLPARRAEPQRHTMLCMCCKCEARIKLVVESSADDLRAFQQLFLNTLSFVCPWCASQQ
UniProt Q08999: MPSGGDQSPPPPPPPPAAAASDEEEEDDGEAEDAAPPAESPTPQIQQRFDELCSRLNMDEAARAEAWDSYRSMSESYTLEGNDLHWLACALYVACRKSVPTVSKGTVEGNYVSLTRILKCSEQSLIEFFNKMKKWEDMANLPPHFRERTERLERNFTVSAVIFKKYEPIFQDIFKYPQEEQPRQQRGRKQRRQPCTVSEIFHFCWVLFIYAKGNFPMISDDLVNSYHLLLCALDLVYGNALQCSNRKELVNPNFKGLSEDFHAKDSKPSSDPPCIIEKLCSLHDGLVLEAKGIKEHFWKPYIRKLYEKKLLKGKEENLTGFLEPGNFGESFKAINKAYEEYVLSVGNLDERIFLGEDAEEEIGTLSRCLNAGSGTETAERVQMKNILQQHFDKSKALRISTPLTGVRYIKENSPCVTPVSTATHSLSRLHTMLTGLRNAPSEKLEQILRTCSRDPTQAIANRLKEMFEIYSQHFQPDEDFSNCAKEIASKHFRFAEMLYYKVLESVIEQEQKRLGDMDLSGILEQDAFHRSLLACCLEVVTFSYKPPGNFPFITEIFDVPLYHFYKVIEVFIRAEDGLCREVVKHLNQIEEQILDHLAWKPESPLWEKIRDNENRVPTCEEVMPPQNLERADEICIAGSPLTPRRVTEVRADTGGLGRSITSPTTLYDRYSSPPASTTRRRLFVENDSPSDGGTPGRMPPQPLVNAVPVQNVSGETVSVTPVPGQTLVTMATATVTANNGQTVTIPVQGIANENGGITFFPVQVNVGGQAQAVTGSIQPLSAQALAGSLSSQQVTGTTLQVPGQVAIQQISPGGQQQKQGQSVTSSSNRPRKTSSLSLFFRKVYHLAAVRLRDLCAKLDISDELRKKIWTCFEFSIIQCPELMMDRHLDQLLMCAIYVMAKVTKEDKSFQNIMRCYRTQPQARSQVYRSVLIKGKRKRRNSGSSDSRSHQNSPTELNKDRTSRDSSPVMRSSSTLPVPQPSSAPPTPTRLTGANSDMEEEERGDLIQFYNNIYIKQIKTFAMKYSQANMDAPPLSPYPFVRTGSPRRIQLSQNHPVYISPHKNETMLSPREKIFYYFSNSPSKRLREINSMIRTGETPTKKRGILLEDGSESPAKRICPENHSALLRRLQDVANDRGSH
UniProt Q5TKA1: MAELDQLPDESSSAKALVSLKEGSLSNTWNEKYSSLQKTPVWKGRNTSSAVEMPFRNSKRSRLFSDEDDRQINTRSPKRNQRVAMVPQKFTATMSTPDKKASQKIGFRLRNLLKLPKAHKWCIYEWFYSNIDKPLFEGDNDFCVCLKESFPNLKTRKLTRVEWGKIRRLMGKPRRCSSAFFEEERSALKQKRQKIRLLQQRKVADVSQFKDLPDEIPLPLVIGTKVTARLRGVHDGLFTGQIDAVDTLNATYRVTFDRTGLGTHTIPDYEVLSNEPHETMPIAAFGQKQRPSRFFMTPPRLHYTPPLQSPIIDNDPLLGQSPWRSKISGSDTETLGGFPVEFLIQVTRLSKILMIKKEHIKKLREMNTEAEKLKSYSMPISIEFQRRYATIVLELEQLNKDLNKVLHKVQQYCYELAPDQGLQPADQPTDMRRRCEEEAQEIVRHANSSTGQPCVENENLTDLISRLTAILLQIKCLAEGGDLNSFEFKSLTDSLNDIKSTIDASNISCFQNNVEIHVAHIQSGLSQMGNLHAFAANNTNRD
UniProt P10244: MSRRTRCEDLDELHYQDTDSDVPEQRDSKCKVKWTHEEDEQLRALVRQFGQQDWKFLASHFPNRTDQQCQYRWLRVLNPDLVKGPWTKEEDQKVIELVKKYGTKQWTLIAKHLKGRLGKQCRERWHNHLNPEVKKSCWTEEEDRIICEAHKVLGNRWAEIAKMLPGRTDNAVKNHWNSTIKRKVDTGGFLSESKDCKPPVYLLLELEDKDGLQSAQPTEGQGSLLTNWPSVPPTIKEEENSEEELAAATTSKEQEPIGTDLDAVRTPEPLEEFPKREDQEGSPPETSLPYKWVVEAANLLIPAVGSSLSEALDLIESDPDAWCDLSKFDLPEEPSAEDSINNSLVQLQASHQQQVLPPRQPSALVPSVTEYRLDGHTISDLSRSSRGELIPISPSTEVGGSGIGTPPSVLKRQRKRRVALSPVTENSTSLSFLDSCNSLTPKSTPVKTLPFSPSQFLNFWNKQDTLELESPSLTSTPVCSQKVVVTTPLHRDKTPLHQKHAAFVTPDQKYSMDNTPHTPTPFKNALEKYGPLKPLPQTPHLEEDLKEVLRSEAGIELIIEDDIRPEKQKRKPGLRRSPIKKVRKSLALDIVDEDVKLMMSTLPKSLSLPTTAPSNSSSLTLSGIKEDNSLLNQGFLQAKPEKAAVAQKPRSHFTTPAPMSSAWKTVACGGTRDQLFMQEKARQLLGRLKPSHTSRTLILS

Tests used:
[1] = molecular target: LIN37 (human (endogenous in N/Tert-1, HeLa, SiHa)) (UniProt Q96GY3); test: co-IP; LIN37 precipitated from HeLa and SiHa cell lines (control, LIN52 WT or LIN52-S20C expressing); EBC buffer extracts, capturing antibody and protein A Sepharose overnight at 4 °C
[2] = molecular target: LIN37 (human (endogenous in N/Tert-1, HeLa, SiHa)) (UniProt Q96GY3); test: co-IP; LIN37 precipitated from N/Tert-1 and N/Tert-1+HPV16 cell lines (also lines expressing LIN52 WT or S20C); EBC buffer extracts, capturing antibody and protein A Sepharose overnight at 4 °C
HPV16 E7 (HPV16) = HPV16 E7 (HPV16) (UniProt P03129); test: co-IP
HPV18 E7 (HPV18) = HPV18 E7 (HPV18) (UniProt P06788); test: co-IP

p130 (from UniProt Q08999 1-1139)
binding [1]: binds | binding [2]: binds | binding (HPV16 E7 (HPV16)): binds | binding (HPV18 E7 (HPV18)): binds

LIN9 (from UniProt Q5TKA1 1-542)
binding [1]: binds

B-Myb (from UniProt P10244 1-700)
binding [2]: binds
